Measurements reported in PubChem BioAssay AID1259308 (NCATS, 2017).
The deposit covers about 59,000 reagents; shown is a part drawn at random. Of all reagents, about 1,510 (2.6%) got an active call. 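Calls use total luciferase alone and ignore viability, so some active siRNAs may act by altering cell number.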 Reagents against one gene are numbered here.

Screen: 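Knock-downs that increase output of a recombinant reporter protein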 (primary screen)
System: human HEK293 embryonic kidney cells stably expressing firefly luciferase (HEK-CMV-Luc2-Hygro)
Reagent: single siRNA against human genes, 0.8 pmol siRNA per well
Duration: 72 h
Read-out: 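Reporter luminescence and viable-cell signal on separate replicate plates, given as percent of non-targeting control and median/MAD z-scores, plus per-cell luciferase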
Scale: total luciferase, z-score and total luciferase, % of control: higher = more reporter protein produced; luciferase per cell, z-score: higher = more reporter output per viable cell; viable cells, % of control: higher = more viable cells
Rule for the call: 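Active when the median/MAD z-score for overall luciferase is greater than 3; a gene was taken forward for validation with new siRNAs if at least two of its three siRNAs passed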
Calls: active = raised luciferase; inactive = no rise

gene | reagent | total luciferase, z-score | total luciferase, % of control | luciferase per cell, z-score | viable cells, % of control | Call
HMGB1P40 (high mobility group box 1 pseudogene 40) | 1 | -0.886 | 64.3 | -0.656 | 85.3 | inactive
HMGB1P40 (high mobility group box 1 pseudogene 40) | 2 | -1 | 61.9 | -0.83 | 86.1 | inactive
HMGB1P40 (high mobility group box 1 pseudogene 40) | 3 | 0.279 | 87.4 | -0.0932 | 100 | inactive
VPS16 (VPS16 core subunit of CORVET and HOPS complexes) | 1 | 0.25 | 86.9 | 0.0104 | 96.8 | inactive
VPS16 (VPS16 core subunit of CORVET and HOPS complexes) | 2 | -2.16 | 39 | -1.75 | 69 | inactive
VPS16 (VPS16 core subunit of CORVET and HOPS complexes) | 3 | 1.4 | 110 | 1.4 | 84.7 | inactive
MRPL10 (mitochondrial ribosomal protein L10) | 1 | 2.5 | 132 | 1.28 | 105 | inactive
MRPL10 (mitochondrial ribosomal protein L10) | 2 | 1.43 | 110 | 1.51 | 82.8 | inactive
MRPL10 (mitochondrial ribosomal protein L10) | 3 | 0.533 | 92.5 | 0.436 | 92.1 | inactive
NUAK1 (NUAK family kinase 1) | 1 | 0.129 | 84.5 | -0.516 | 108 | inactive
NUAK1 (NUAK family kinase 1) | 2 | 0.0399 | 82.7 | 0.188 | 87.9 | inactive
NUAK1 (NUAK family kinase 1) | 3 | -1.35 | 55.1 | -1.63 | 94.6 | inactive
POLE4 (DNA polymerase epsilon 4, accessory subunit) | 1 | -0.415 | 73.6 | -0.845 | 103 | inactive
POLE4 (DNA polymerase epsilon 4, accessory subunit) | 2 | 0.167 | 85.2 | -0.0873 | 97.4 | inactive
POLE4 (DNA polymerase epsilon 4, accessory subunit) | 3 | -1.2 | 58 | -1.66 | 100 | inactive
GSN (gelsolin) | 1 | -1.1 | 60 | -1.21 | 92.2 | inactive
GSN (gelsolin) | 2 | 0.149 | 84.9 | -0.436 | 106 | inactive
GSN (gelsolin) | 3 | 0.93 | 100 | 0.909 | 88.3 | inactive
RAD51AP1 (RAD51 associated protein 1) | 1 | 1.75 | 117 | 1.48 | 88.3 | inactive
RAD51AP1 (RAD51 associated protein 1) | 2 | -0.0684 | 80.5 | -0.0502 | 91.2 | inactive
RAD51AP1 (RAD51 associated protein 1) | 3 | -0.959 | 62.8 | -0.426 | 78.5 | inactive
GDPD2 (glycerophosphodiester phosphodiesterase domain containing 2) | 1 | -1.1 | 60 | -1.38 | 96.4 | inactive
GDPD2 (glycerophosphodiester phosphodiesterase domain containing 2) | 2 | -2.25 | 37.1 | -1.78 | 66.3 | inactive
GDPD2 (glycerophosphodiester phosphodiesterase domain containing 2) | 3 | 0.404 | 89.9 | -0.00631 | 101 | inactive
NBEAL1 (neurobeachin like 1) | 1 | 0.082 | 83.5 | 0.13 | 90.2 | inactive
NBEAL1 (neurobeachin like 1) | 2 | -0.016 | 81.6 | -0.751 | 111 | inactive
NBEAL1 (neurobeachin like 1) | 3 | -0.703 | 67.9 | -1.14 | 103 | inactive
NBEAL1 (neurobeachin like 1) | 4 | -1.59 | 50.2 | -1.67 | 87.2 | inactive
NBEAL1 (neurobeachin like 1) | 5 | 0.456 | 91 | -0.00706 | 102 | inactive
NBEAL1 (neurobeachin like 1) | 6 | 0.147 | 84.8 | -0.139 | 98.3 | inactive
ATPAF1 (ATP synthase mitochondrial F1 complex assembly factor 1) | 1 | -1.65 | 49.1 | -0.0301 | 55.3 | inactive
ATPAF1 (ATP synthase mitochondrial F1 complex assembly factor 1) | 2 | 2.16 | 125 | 2.46 | 73 | inactive
ATPAF1 (ATP synthase mitochondrial F1 complex assembly factor 1) | 3 | 0.693 | 95.7 | 0.237 | 100 | inactive
FAM181B (family with sequence similarity 181 member B) | 1 | 0.435 | 90.5 | 0.889 | 80.1 | inactive
FAM181B (family with sequence similarity 181 member B) | 2 | -0.752 | 66.9 | -0.358 | 82.2 | inactive
FAM181B (family with sequence similarity 181 member B) | 3 | 1.41 | 110 | 1.89 | 74.6 | inactive
HSF2BP (heat shock transcription factor 2 binding protein) | 1 | 0.878 | 99.4 | 1.94 | 66.6 | inactive
HSF2BP (heat shock transcription factor 2 binding protein) | 2 | -0.1 | 79.9 | -0.527 | 103 | inactive
HSF2BP (heat shock transcription factor 2 binding protein) | 3 | 0.862 | 99 | 0.139 | 107 | inactive

Sorted by “viable cells, % of control” (low to high): some entries from above
gene | reagent | total luciferase, z-score | total luciferase, % of control | luciferase per cell, z-score | viable cells, % of control | Call
NBEAL1 (neurobeachin like 1) | 4 | -1.59 | 50.2 | -1.67 | 87.2 | inactive
NBEAL1 (neurobeachin like 1) | 5 | 0.456 | 91 | -0.00706 | 102 | inactive
